# Assay results from the supplement of paper PMC3334620.
# The full ranking holds about 33,000 sequences; the median of “E-score (-0.5 to 0.5)” is about -0.0059, and the highest 2% start at about 0.26. The list shows a part of the results.
# Biological target: T1, Cin5 (UniProt P40917)
# T1 sequence: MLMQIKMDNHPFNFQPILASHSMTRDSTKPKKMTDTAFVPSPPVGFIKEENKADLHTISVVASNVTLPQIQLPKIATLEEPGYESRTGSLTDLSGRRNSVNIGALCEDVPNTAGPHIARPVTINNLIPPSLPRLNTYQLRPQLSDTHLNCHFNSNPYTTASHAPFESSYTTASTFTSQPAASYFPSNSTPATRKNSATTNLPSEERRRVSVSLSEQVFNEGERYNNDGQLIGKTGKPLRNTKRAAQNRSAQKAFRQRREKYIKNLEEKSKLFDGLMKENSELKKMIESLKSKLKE
# Assay: PBM E-score (8-mer binding enrichment) (E-score (-0.5 to 0.5)); higher = stronger / more preferred TF binding
# Conditions: protein concentration: 100 nM; construct: GST-full length
# How it was run: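 Full-length yeast transcription factors or their DNA-binding domains, GST-tagged and expressed with PURExpress, were applied at about 100-200 nM to universal all-10-mer Agilent arrays. These arrays had been made double-stranded by primer extension on fresh or once-stripped slides. Detection used fluorescent anti-GST, normalisation used masliner, and E-scores for ungapped eight-base words pooled with reverse complements came from the Universal PBM Analysis Suite.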
row,Sequence,PBM E-score
1,AGAAGAAT,-0.015
2,ACGTGGCA,-0.232
3,CCGCCTCG,-0.095
4,AGGTTGTA,0.143
5,ACCCACGG,-0.252
6,CGGGCTTC,-0.242
7,ACAGGAAC,0.0154
8,TTCATAAA,0.0384
9,GGCGACGA,-0.143
10,AAATGCGA,0.0734
11,ATCTCGGA,0.0536
12,GACTTATA,0.209
13,GCATTGTA,0.0783
14,AGTGTCGA,-0.175
15,CAATTGTC,0.119
16,ACACTACG,0.0298
17,CGACGACA,-0.0882
18,AGGAGTCA,-0.0658
19,ACCACGGC,-0.136
20,CGTTCGAG,0.0512
21,GGAAGAAC,0.148
22,AATGTCGA,0.16
23,ACACCCCA,-0.0685
24,CAACAGTG,0.0305
25,ACTATGAG,0.0206

row,Sequence,PBM E-score
1,CGATTGAG,-0.047
2,GAATTATA,0.101
3,CTACTACA,0.173
4,ACGACTAC,-0.0961
5,GCTGTGAC,-0.151
6,TCTGTTCA,0.135
7,CTATAGGA,-0.133
8,ATCCTCCA,-0.0549
9,GGAAAGAC,-0.209
10,AGTCCAAG,-0.144
11,TCTATTAA,0.109
12,ATAAAAGG,-0.158
13,GAAATTTA,0.0219
14,GCGACCTA,-0.0518
15,AGGACAAC,-0.126
16,CCTAAGCG,-0.0324
17,GCTGGTGA,0.0963
18,GCAATACC,0.0147
19,CACGAAAC,0.0711
20,GGCAAAAC,-0.0991
21,CCGTGCCA,-0.178
22,CCGACGCG,-0.0277
23,TAGCAGCA,-0.131
24,ACATGCTC,-0.0236
25,ATATAAGC,0.24

row,Sequence,PBM E-score
1,TAATGGGA,-0.037
2,CCTCCAAC,0.01
3,CACAGAAG,-0.0708
4,ACGATATA,-0.00476
5,TCATCCGA,0.15
6,CAAGGAGA,-0.25
7,AAAACGAT,0.18
8,AGCGACAT,0.0843
9,CCGAACCG,-0.189
10,ATTATACA,0.123
11,ACGCTCGG,0.0146
12,AACGCCCT,-0.221
13,CGGAGGAG,-0.182
14,CAACAGCG,-0.0893
15,CAAATCGC,-0.175
16,GAGGGACC,-0.31
17,CTTAAGTC,-0.00578
18,GGGGCCAC,-0.282
19,GCCGGCAC,0.106
20,GGATGCAC,-0.103
21,AGTTGGTC,0.0229
22,ATTCGAAA,0.226
23,ACATATAA,0.237
24,GTTAGCCA,-0.00576
25,AACTACGT,0.0155

row,Sequence,PBM E-score
1,ATTACAGG,0.244
2,ATGACAGA,0.0914
3,ACGTAACA,0.214
4,ATCTAAGA,0.0536
5,GGACCGAA,0.0361
6,ACGGCCGT,0.107
7,AAGGGAAC,-0.247
8,ATGTGTGC,-0.0763
9,CTTGCGGA,-0.128
10,TAGTGCAA,0.172
11,CATAACGA,0.0898
12,CGCAATAA,0.221
13,GTGGTAAC,-0.0191
14,AGCGCTTG,0.027
15,CGTCAAAA,0.122
16,ATATGGAA,0.0442
17,CATAGTCG,0.0574
18,CTGGTAGC,-0.111
19,ACCCTCCG,-0.154
20,CGTATTGA,0.0973
21,AAGAATGC,0.131
22,ACCGGACG,-0.00878
23,ATATCTTG,0.074
24,GGGCACTA,-0.122
25,ACTATAAA,0.146

row,Sequence,PBM E-score
1,AATCGACG,0.00891
2,AACAACAG,-0.126
3,CAAGGACA,-0.148
4,AATCTCGT,0.0924
5,CCTCACAA,0.00087
6,TAAAAATA,0.152
7,ATGAAGTA,0.2
8,AGTTCAGC,-0.169
9,GTCGTCAA,-0.0649
10,CGATTGGA,0.0246
11,GAATATAC,0.195
12,AGAGTGTC,0.146
13,CAGGTCCC,-0.187
14,AGCACATG,0.166
15,GTATAGTA,0.169
16,ATATGCAT,0.00063
17,CTCAAAGA,-0.114
18,ACAGAAAG,0.102
19,CTTAATAA,0.267
20,GAGACAAA,-0.148
21,AACAGTGC,0.00204
22,CACGAGTG,-0.186
23,GAAATAAC,0.128
24,ACCTTTAC,0.0225
25,GGCGGTGA,-0.0013

# Random excerpt: 4 entries already listed, in no set order.
row,Sequence,PBM E-score
23,GAAATAAC,0.128
19,CTTAATAA,0.267
14,AGCACATG,0.166
8,AGTTCAGC,-0.169

# Next part

row,Sequence,PBM E-score
1,TATCAACA,0.108
2,CGCGCCCA,0.166
3,TAACTTAA,0.189
4,GCAGTCGA,-0.0448
5,ACGGCTAA,0.192
6,AGAGTAAG,0.154
7,CCGTGCAA,-0.114
8,GGATGACC,0.00035
9,AACACTAT,0.23
10,AGTGTCAC,-0.0637
11,CTGCTGAA,-0.212
12,AGGGGTCG,-0.128
13,CTGTCGTC,-0.0636
14,GACCAGCC,-0.159
15,AGCAGCAC,-0.124
16,TACAACTA,0.199
17,ATGAAACA,0.104
18,ACGTGACA,0.0501
19,ACTGGACA,-0.118
20,ACTACTCT,-0.0197
21,GACCGAGC,-0.253
22,AGCGTCTA,-0.0994
23,GTCCGTCA,0.0752
24,ACACCGAA,0.107
25,AGAAACCT,0.0967

row,Sequence,PBM E-score
1,CAGCGTTC,-0.00468
2,GCATGGAA,0.0398
3,AATGTATA,0.243
4,GCTTTATA,-0.0287
5,GACCGACA,-0.00742
6,GCAATAAC,0.178
7,ATAGTATA,0.215
8,AATCGTAC,0.138
9,AATAGGAC,0.133
10,AAAATGGA,0.29
11,CAGTCAGC,-0.0612
12,CTTCAAAA,0.0157
13,CATGTACG,0.165
14,ACTCAATA,0.241
15,GAATCGAA,0.152
16,GAGGACGA,0.0726
17,ACACCTCG,0.0498
18,ATTGCACG,0.0324
19,CTCCCTGC,-0.271
20,CTCAGTTA,0.00048
21,CCGGTAGC,-0.218
22,AATTAGTA,0.308
